From US10689367B2, “Triazole pyridyl compounds as agonists of the APJ receptor” (AMGEN INC., priority 2016, dated 2020)
Structures were worked out from names or drawings and are uncertain.

Protein sequences, listed by entry. Tags and fused reporters are not part of them.
UniProt P35414, whole entry: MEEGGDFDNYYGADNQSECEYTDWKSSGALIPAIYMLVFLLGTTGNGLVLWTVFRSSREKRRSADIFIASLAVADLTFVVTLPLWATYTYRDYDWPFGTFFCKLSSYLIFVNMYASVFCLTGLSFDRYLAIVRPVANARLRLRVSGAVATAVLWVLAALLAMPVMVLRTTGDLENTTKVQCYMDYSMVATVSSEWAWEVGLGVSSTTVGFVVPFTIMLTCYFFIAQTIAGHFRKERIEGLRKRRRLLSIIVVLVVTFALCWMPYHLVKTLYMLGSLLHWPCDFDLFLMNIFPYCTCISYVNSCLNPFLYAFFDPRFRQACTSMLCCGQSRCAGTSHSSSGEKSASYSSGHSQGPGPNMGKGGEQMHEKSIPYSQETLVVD

Target: APJ receptor (Homo sapiens (Human), UniProt P35414)
Assay: [35S]GTPγS binding assay on membranes from CHO cells stably expressing human APJ receptor
Format: biochemical
Conditions: read-out: Activity hAPJ SPA EC50 IP, membranes of CHO cells stably expressing human APJ receptor
Protocol: The human APJ receptor was cloned by polymerase chain reaction and the gene encoding the receptor was subcloned in pFLAG-CMV™-3 expression vector (Sigma, Saint Louis, Mo. USA) in-house at Amgen. A GTPγS binding assay was performed on membranes prepared from CHO cells stably expressing human APJ receptor. The optimum experimental conditions for the concentrations of GDP, MgCl2, and NaCl in the assay buffer were initially determined. […] Incubation was at RT for 90 min and the microplate was read using a ViewLux™ ultra HTS Microplate Imager (PerkinElmer, Inc.). All the results presented are means of several independent experiments and analyzed by non-linear regression methods using the commercially available program Prism (GraphPad, San Diego, Calif.) providing the EC50 values detailed in Table 27.

**Q.** Which EC50 does the source give for `COc1cccc(-c2nnc(NS(=O)(=O)[C@@H](C)[C@H](OC)c3ncc(Cl)cn3)n2C(C)C2CCCCO2)n1` (single isomer, unassigned) here?
**A.** 0.24 nM
